Experimental data reported in PubChem BioAssay AID1347076 (National Center for Advancing Translational Sciences (NCATS), 2019).
The campaign covered roughly 400,000 compounds. About 13,000 (3.2%) were called active. The shares of active, inactive and inconclusive entries below differ from those in the screen. The call rests on the fitted dose curve; in most records, active means well fitted cell-killing curve with a large enough effect; inconclusive means small, poorly fitted or top-dose-only effect, or effect the other way; inactive means flat fitted curve, though single readings scatter. Potencies beside an inconclusive call are fits to weak or partial responses and may not hold up.

Assay: qHTS assay for MDR1-selective chemotherapeutics: Primary screen using the drug-selected MDR subline cells KB-V1; further: nearly all actives have a fitted effect of over 60% in size
Conditions: KB-V1 MDR cells viability, CellTiter-Glo, 72 h; activity change, negative = cytotoxicity: at 46.1 µM (top of the series)
In short: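 Following 72 h at 37 degrees C with compound, KB-V1 cell viability was read by CellTiter-Glo luminescence, medium being phenol-red-free DMEM plus 10% FBS; concentration-response parameters came from normalized, curve-fitted qHTS data.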
On the % scale 0 is the no-effect control and ±100 the full control effect; potency means the concentration at half of the fitted maximal effect.

SMILES	activity change, negative = cytotoxicity	Potency
Cc1ccc(Cl)cc1-c1cc(C(=O)N2CCc3ccccc3C2)[nH]n1	inactive: -0.358%	–
CCOc1ccccc1NC(=O)CSc1nnc(-c2ccccc2Cl)n1Cc1ccco1	–	inconclusive: 29.1 µM [cytotoxic, single point]
COC(=O)c1cc(CSc2nnc(NC3CCCCC3)s2)oc1C	–	active: 20.6 µM
CC(C)OC(=O)/C(=C/c1ccc2c(c1)c1ccccc1n2C)NC(=O)c1ccccc1	–	inconclusive: 29.1 µM [cytotoxic, single point]
COc1ccc(Cl)cc1N(C)C(=O)c1cc2c(=O)oc3ccc(C)cc3c2s1	–	inconclusive: 29.1 µM [cytotoxic, single point]
COc1ccc(NC(=O)NC2(C(=O)N3CCCC(C)C3)CCCCC2)cc1 (stereo not given)	–	inconclusive: 0.517 µM [cytotoxic, full curve, poor fit]
CN(C)c1cc(NC(=O)CNC(C)(C)C)c2ccccc2n1	–	inconclusive: 7.31 µM [cytotoxic, partial curve, poor fit]
O=c1c2sc3nc(N4CCOCC4)c4c(c3c2ncn1CCc1ccccc1)CCCC4	–	active: 2.31 µM
CCC(=O)c1ccc(OCC(=O)N2CCc3cc(OC)c(OC)cc3C2)cc1	inactive: -11.2%	–
CCOC(=O)c1cnc2c(c(C)nn2CC)c1NC1CC1	–	inconclusive: 5.17 µM [cytotoxic, partial curve]
O=C(CCc1ccc(S(=O)(=O)N2CCOCC2)cc1)N/N=C/c1ccc(F)cc1F	–	inconclusive: 2.31 µM [cytotoxic, partial curve, poor fit]
CCc1ccc(NC(=O)CCNS(=O)(=O)c2ccc3c(c2)oc(=O)n3C)cc1	inactive: 9.88%	–
CCOC(=O)N1C2C=CC(C2)N1C(=O)OCC	–	inconclusive: 20.6 µM [rising, single point]
CN(CCO)c1ccc(-c2n[nH]c(=O)c3ccccc23)cc1[N+](=O)[O-]	inactive: -18.7%	–
O=C(CN1CCC(NC(=O)C2CC2)CC1)Nc1ccccc1[N+](=O)[O-]	–	inconclusive: 20.6 µM [cytotoxic, single point]
Cc1ccnc2c1ccc1c(C)ccnc12	–	inconclusive: 20.6 µM [cytotoxic, single point]
CCOc1ccc(C(=O)C2CCN(CC(=O)Nc3nccs3)CC2)cc1	–	inconclusive: 1.16 µM [cytotoxic, full curve]
COCc1cc(=O)n2[nH]cc(-c3ccccc3)c2n1	–	inconclusive: 18.4 µM [cytotoxic, single point]
CCOC(=O)c1[nH]c2cc3c(cc2c1NC(=O)CN1CC(C)CC(C)C1)OCO3 (stereo not given)	–	inconclusive: 25.9 µM [cytotoxic, single point]
CCCn1c(=N)n(CC(=O)C(C)(C)C)c2ccccc21	inactive: 17.3%	–
COC(=O)c1sccc1S(=O)(=O)N(CC(=O)Nc1ccccc1F)c1ccccc1	inactive: 11.5%	–
Cc1ccc(C)c(C(=O)OCC(=O)N(C)c2ccccc2)c1	inactive: -23.2%	–
CN(Cc1ccccc1)c1ncnc2c1nnn2C	inactive: 5.02%	–
CN1CCN(S(=O)(=O)c2ccc(Cc3ccc(S(=O)(=O)N4CCN(C)CC4)cc3)cc2)CC1	inactive: -9.11%	–

SMILES	activity change, negative = cytotoxicity	Potency
CCOc1ccc(C(=O)c2oc3ccccc3c2NC(=O)c2cc(-c3ccc(Cl)cc3)on2)cc1	–	inconclusive: 25.9 µM [rising, single point]
COc1cc(-c2nnc(COC(=O)C3c4ccccc4Oc4ccccc43)o2)cc(OC)c1OC	inactive: -15.6%	–
O=C(NC(=O)c1c(F)cccc1F)O/N=C1\CCCc2occc21	–	inconclusive: 0.0046 µM [cytotoxic, full curve, poor fit]
C[C@@H]1CN([C@@H](C)CO)C(=O)CCCn2nncc2CO[C@H]1CN(C)S(=O)(=O)c1ccc(F)cc1	–	inconclusive: 2.31 µM [cytotoxic, full curve]
CC(=O)c1cccc(NS(=O)(=O)c2cc(-c3cnc(C4CC4)o3)ccc2C)c1	–	inconclusive: 29.1 µM [cytotoxic, single point]
Cc1cc(/C=C2\SC(=S)N(C)C2=O)c(C)n1-c1ccc(O)cc1	–	inconclusive: 29.1 µM [cytotoxic, single point]
CC(C)Oc1ccc(S(=O)(=O)N2CCOCC2)cc1NC(=O)C(C)Oc1ccc(F)cc1 (stereo not given)	–	inconclusive: 9.2 µM [cytotoxic, partial curve]
Cc1ccc(S(=O)(=O)NCCOc2nc(N3CCOCC3)nc(N3CCOCC3)n2)cc1	–	inconclusive: 9.2 µM [cytotoxic, partial curve, poor fit]
Cc1ccc(C(=O)Nc2cccnc2)cc1Cl	inactive: -27.6%	–
COc1cccc(C(=O)Nc2nc(-c3ccc4c(c3)OCO4)cs2)c1	–	inconclusive: 13 µM [cytotoxic, partial curve]
Cc1ccc(C(=O)NCCc2ccc(S(N)(=O)=O)cc2)cc1-n1cnc2cccnc21	inactive: -0.366%	–
CC(Oc1ccc(F)cc1)C(=O)Nc1cc(S(=O)(=O)N2CCCCC2)ccc1N1CCN(C)CC1 (stereo not given)	inactive: -1.25%	–
N=C1/C(=C/c2cccn2CCOc2ccccc2)C(=O)N=C2SC=C(c3ccccc3)N12	–	active: 3.66 µM
COc1ccc(NC(=O)CSCC(=O)N2CCN(C(=O)c3ccco3)CC2)cc1	–	inconclusive: 29.1 µM [rising, single point]
CN(C)S(=O)(=O)N1CCN(c2ccc([N+](=O)[O-])c(N3CCOCC3)c2)CC1	–	inconclusive: 29.1 µM [cytotoxic, single point]
O=C(CCCCn1c(=O)c2ccccc2n(CC(=O)Nc2ccc(F)cc2F)c1=O)NCCc1ccccc1	–	inconclusive: 29.1 µM [rising, single point]
CC(=NNC(=S)Nc1ccc(C)cc1)c1ccccn1	–	inconclusive: 0.0073 µM [cytotoxic, full curve, poor fit]
Cc1ccc(N(CC(=O)Nc2cc(C)ccc2C)S(=O)(=O)c2c(C)noc2C)cc1	inactive: -20%	–
O=[N+]([O-])c1nn(-c2ccc3c(c2)OCCO3)n(O)c1=NC1CCCC1	inactive: -8.57%	–
COc1ccc(C(=O)CSc2nnc(CNC(=O)c3ccccc3)o2)cc1	–	inconclusive: 0.291 µM [rising, full curve]
Cc1cccc(N2CCN(C(c3ccc(N(C)C)cc3)c3nnnn3C(C)(C)C)CC2)c1C (stereo not given)	–	inconclusive: 20.6 µM [cytotoxic, single point]
O=S(=O)(c1ccc(Cl)cc1)c1nnn2c1nc(NCc1ccc3c(c1)OCO3)c1sccc12	–	inconclusive: 18.4 µM [rising, partial curve, poor fit]
O=C(Nc1ccc([N+](=O)[O-])cc1)C(c1ccccc1)c1ccccc1	–	inconclusive: 16.4 µM [cytotoxic, single point]
Cc1cc(C(=O)CN2C(=O)CN(C)C2=O)c(C)n1-c1cccc(S(=O)(=O)N2CCOCC2)c1	inactive: -5.43%	–

SMILES	activity change, negative = cytotoxicity	Potency
CC(/C=C\c1ccccc1)=C/C(=O)O	inactive: 6.65%	–
CCc1cccc(C)c1NC(=S)NCCc1c(C)[nH]c2ccc(C)cc12	–	inconclusive: 29.1 µM [cytotoxic, single point]
Cc1cccc(C)c1NC(=O)C(c1ccccc1)n1c(=O)c(-c2ccccc2)nc2ccccc21 (stereo not given)	–	inconclusive: 20.6 µM [cytotoxic, partial curve, poor fit]
CN(C)c1ccc(-c2ccnc3c2CC(C)(C(=O)NCC2CCOCC2)O3)cc1 (stereo not given)	–	inconclusive: 23.1 µM [cytotoxic, single point]
Cc1ccccc1-n1nnnc1SCC(=O)NNC(=O)c1ccc(NC(=O)CC#N)cc1	–	inconclusive: 9.2 µM [rising, partial curve]
Cc1cccc(Cn2cnc3ccccc32)c1	–	inconclusive: 28.2 µM [cytotoxic, single point]
O=C(Cn1nnc2c(cnn2-c2ccccc2)c1=O)NCc1cccs1	–	inconclusive: 23.1 µM [cytotoxic, single point]
COc1ccc(N2CCN(C(CNC(=O)C(=O)NCCCn3ccnc3)c3ccco3)CC2)cc1 (stereo not given)	inactive: 15.5%	–
O=C(Nc1nc(COc2ccccc2)cs1)C1CCC1	–	inconclusive: 29.1 µM [cytotoxic, single point]
Cc1cccc(CCNC(=O)C2CCN(S(=O)(=O)c3c(C)noc3C)CC2)c1	inactive: -26.1%	–
CC1CC(N(C(=O)c2ccco2)c2ccccc2)c2ccccc2N1 (stereo not given)	inactive: 0%	–
O=C(NCc1ccc2c(c1)OCO2)c1ccc(Br)s1	–	inconclusive: 16.4 µM [rising, single point]
CC1CCCN(CC(=O)Nc2ccc(S(=O)(=O)NC3CCCCC3)cc2)C1 (stereo not given)	–	inconclusive: 18.4 µM [cytotoxic, partial curve]
COc1ccc(Cl)cc1NC(=O)NCC1CCN(Cc2cc(C)ccc2C)CC1	–	active: 23.1 µM
CCOC(=O)N1C(=O)NC(=O)C1c1ccc(Cl)cc1 (stereo not given)	–	inconclusive: 29.1 µM [cytotoxic, single point]
Cc1cc(C)cc(C(=O)N2CC(C)OC(C)C2)c1 (stereo not given)	inactive: -0.492%	–
Cc1cc(O)c(C(=O)/C=C/c2ccc(Cl)cc2)c(=O)o1	–	inconclusive: 29.1 µM [cytotoxic, single point]
COCCn1c(SCC(=O)NCCc2ccccc2)nnc1-c1ccco1	–	inconclusive: 11.6 µM [cytotoxic, partial curve]
Cc1ccc(COC(=O)c2[nH]c3c(c2C)C(=O)CC(c2ccc(N(C)C)cc2)C3)cc1 (stereo not given)	inactive: 3.46%	–
COc1ccc(OC)c(S(=O)(=O)NCC(c2ccco2)N2CCc3ccccc3C2)c1 (stereo not given)	–	inconclusive: 5.8 µM [cytotoxic, partial curve]
CCNC(=O)CSc1nnc(-c2ccccc2)n1-c1ccc(OCC)cc1	–	active: 18.4 µM
CCc1ccc2c(COn3nnc4ccc(S(=O)(=O)N(C)C)cc43)cc(=O)oc2c1	–	inconclusive: 25.9 µM [rising, single point]

Look-ups from the results shown.
Under activity change, negative = cytotoxicity, `CN1CCN(S(=O)(=O)c2ccc(Cc3ccc(S(=O)(=O)N4CCN(C)CC4)cc3)cc2)CC1` is entered as inactive: -9.11%
Under Potency, `Cc1cccc(C)c1NC(=O)C(c1ccccc1)n1c(=O)c(-c2ccccc2)nc2ccccc21` (stereo not given) is entered as inconclusive: 20.6 µM [cytotoxic, partial curve, poor fit]
Under Potency, `COC(=O)c1cc(CSc2nnc(NC3CCCCC3)s2)oc1C` is entered as active: 20.6 µM
